In patent US20200354468A1 (US Dept. of Health and Human Services, published 2020):
Results are given in words; binding and its absence hold for the method and conditions named. Some results given as binding are weak or reduced against the parent protein; the word gives no strength.

Legend:
[1] = molecular target: T1, CD133 protein (human), as expressed by human cell lines and tumor tissue (Homo sapiens) (UniProt O43490); assay: immunofluorescence on FFPE multitumor array
T1 sequence (chain, unglycosylated (97 kDa) and glycosylated (about 120-133 kDa) forms detected): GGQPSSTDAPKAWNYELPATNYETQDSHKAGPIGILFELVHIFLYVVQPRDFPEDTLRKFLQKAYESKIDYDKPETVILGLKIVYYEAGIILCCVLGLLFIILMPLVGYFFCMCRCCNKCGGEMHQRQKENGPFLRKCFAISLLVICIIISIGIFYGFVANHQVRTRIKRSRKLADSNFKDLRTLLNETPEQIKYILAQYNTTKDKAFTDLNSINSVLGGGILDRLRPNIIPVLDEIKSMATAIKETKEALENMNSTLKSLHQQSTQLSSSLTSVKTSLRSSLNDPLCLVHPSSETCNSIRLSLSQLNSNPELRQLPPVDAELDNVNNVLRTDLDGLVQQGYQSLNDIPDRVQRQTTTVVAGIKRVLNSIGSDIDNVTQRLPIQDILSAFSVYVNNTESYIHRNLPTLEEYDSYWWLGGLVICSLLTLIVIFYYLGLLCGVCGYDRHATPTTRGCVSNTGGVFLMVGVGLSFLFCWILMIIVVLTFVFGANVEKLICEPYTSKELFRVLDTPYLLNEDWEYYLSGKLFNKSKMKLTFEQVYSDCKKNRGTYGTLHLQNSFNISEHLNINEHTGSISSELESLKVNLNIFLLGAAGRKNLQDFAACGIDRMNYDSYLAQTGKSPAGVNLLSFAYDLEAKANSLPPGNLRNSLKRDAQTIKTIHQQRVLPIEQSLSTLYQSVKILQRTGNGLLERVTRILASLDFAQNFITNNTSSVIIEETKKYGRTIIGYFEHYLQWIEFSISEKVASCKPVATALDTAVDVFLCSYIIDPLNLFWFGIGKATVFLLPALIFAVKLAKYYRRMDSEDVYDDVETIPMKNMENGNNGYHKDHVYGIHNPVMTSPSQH

[2] = molecular target: T1, CD133 protein (human), as expressed by human cell lines and tumor tissue (Homo sapiens); assay: immunofluorescence on H596 xenograft tumor sections
[3] = molecular target: T1, CD133 protein (human), as expressed by human cell lines and tumor tissue (Homo sapiens); assay: Western blot of lysates of CD133-expressing cells
[4] = molecular target: T1, CD133 protein (human), as expressed by human cell lines and tumor tissue (Homo sapiens); assay: immunofluorescence on FFPE melanoma tumor array
[5] = molecular target: T1, CD133 protein (human), as expressed by human cell lines and tumor tissue (Homo sapiens); assay: immunofluorescence on FFPE cell pellets and xenograft
[6] = molecular target: T1, CD133 protein (human), as expressed by human cell lines and tumor tissue (Homo sapiens); assay: Western blot of crude cell lysates, primary antibody 1 ug/ml
[7] = molecular target: T1, CD133 protein (human), as expressed by human cell lines and tumor tissue (Homo sapiens); assay: immunofluorescence on FFPE cell pellets (HT29, SW620, U87), 10 ug/ml
[8] = molecular target: T1, CD133 protein (human), as expressed by human cell lines and tumor tissue (Homo sapiens); assay: immunofluorescence on FFPE human tumor micro arrays

binding [1]: binds
binding [2]: binds
binding [3]: binds
binding [4]: binds
binding [5]: binds
binding [6]: binds
binding [7]: binds
binding [8]: binds
B1: anti-CD133 monoclonal antibody mAb 133-3 (antibody, V domains shown)
VH: QSVEESGGRLVTPGTPLTLTCTVSGFSLSRYAMSWVRQAPGKGLDWIGYIDIGGGAYYASWAKGRFTISETSTTVYLKVNSPTTEDTATYFCARGVANSDIWGPGTLVTVSS
VL: ALVMTQTPSPVSAAVGGTVTINCQSSQSVFNNKWLSWYQQKPGQPPKLLIYFVSTLASGVPSRFKGSGSGTQFTLTISGVQCDDAATYYCQGSDYSSGWYSPFGGGTEVVVEG
notes: Rabbit IgG from a hybridoma, cloned and made recombinantly in HEK293 cells
